These are yes or no findings as the source states them, for the method shown. A result given as binding can be weak or reduced; the word gives no strength. For some of these results: In cells and extracts the contact can be indirect. For some of these results: Tags and fused reporters may be left off the sequences shown.
Columns and labels:
[1] = molecular target: T1, OsNEK6 full length in pGBKT7 (bait) (rice (Oryza sativa)) (UniProt Q6YY75); experiment: two-hybrid; pairwise co-transformation of pGADT7 and pGBKT7 constructs into yeast strain Y2H Gold; SD/-Trp/-Leu, then SD/-Ade/-His/-Trp/-Leu/X-alpha-Gal plates for 3-5 days
T1 sequence: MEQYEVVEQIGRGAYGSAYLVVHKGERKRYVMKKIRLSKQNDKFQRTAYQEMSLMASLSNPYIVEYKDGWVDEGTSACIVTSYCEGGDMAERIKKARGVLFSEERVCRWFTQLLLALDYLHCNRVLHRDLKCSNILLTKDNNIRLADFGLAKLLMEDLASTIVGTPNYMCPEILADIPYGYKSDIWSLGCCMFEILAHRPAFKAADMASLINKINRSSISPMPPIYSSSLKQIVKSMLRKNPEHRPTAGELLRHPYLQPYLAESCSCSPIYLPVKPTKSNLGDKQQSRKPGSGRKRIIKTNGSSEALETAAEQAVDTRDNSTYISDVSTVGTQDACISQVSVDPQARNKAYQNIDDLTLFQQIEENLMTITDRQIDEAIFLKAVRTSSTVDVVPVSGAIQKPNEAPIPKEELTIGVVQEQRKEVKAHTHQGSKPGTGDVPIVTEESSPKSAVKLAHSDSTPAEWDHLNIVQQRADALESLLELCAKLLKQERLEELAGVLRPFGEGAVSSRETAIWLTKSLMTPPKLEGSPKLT

[2] = molecular target: T2, OsNEK6-cYFP (rice (Oryza sativa)) (UniProt Q6YY75); experiment: split reporter; BiFC; pSAT6-NYFP and pSAT6-CYFP constructs transiently expressed in rice protoplasts via PEG transformation for 2 days; confocal microscopy
T2 sequence: T1 sequence

[3] = molecular target: OsCAMK1 full length in pGBKT7 (bait) (rice (Oryza sativa)) (UniProt Q10SI6); experiment: two-hybrid; pairwise co-transformation of pGADT7 and pGBKT7 constructs into yeast strain Y2H Gold; SD/-Trp/-Leu, then SD/-Ade/-His/-Trp/-Leu/X-alpha-Gal plates for 3-5 days
[4] = molecular target: OsCAMK1-nYFP (rice (Oryza sativa)); experiment: split reporter; BiFC; pSAT6-NYFP and pSAT6-CYFP constructs transiently expressed in rice protoplasts via PEG transformation for 2 days; confocal microscopy

“OsCAMK1 full length in pGADT7 (prey) (from UniProt Q10SI6)” was tested, and the binding [1] was “binds”.

In the case of OsCAMK1-nYFP (rice (Oryza sativa)), the binding [2] is reported as “binds”.

B1: OsDi19-3 full length in pGADT7 (prey) (protein, UniProt Q5QMP3 1-246)
chain: MDSEHWISSLAAAKRFYAAQLGHVDDMAGIGMEEVEMEMEDDGEGMELELEMQLEEATWPDVACPYCYEDHDIASLCAHLEEDHPYEPHTSPCPICFEKITRDMLNHITMQHGYLFKSGRRMRRFDIPESQALSLLSRDLRDAQLQALLGGGHRQRRSNTTATNISADPLLSSFGLGFSTLDSEERSKAPVPIPDDTSIHKDTPAQPWESRIDSSLTSEEREQKRKQATDRATFVQGLVLSTLFED
In the case of B1, the binding [3] is reported as “binds”.

B2: OsDi19-cYFP (protein, UniProt Q5QMP3 1-246)
chain: B1 chain
B2 was tested, and the binding [4] was “binds”.
